Assay results taken from the supplement of paper PMC4604168 (melanoma cell lines).
Some of the results follow. Repeats are few or missing, and single values can be far off.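 The apoptosis fraction was the count of cleaved-PARP antibody-stained nuclei relative to all DNA-stained nuclei, imaged in 1,536-well plates. Screening doses were set so most cells survived, and baseline and induced cleaved-PARP levels vary greatly across cell lines.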

Experiments:
Assay in all cases: cleaved PARP positive nuclei fraction relative to DMSO control; melanoma cells; higher = more apoptosis
Conditions in all cases: library dose: low library concentration; 72 h
501Mel = tested on: 501Mel
A101D = tested on: A101D
A2058 = tested on: A2058
A375 = tested on: A375
C32 = tested on: C32
CBRC008 = tested on: CBRC008 (line from a melanoma biopsy)
CBRC014 = tested on: CBRC014 (line from a melanoma biopsy)
CBRC016 = tested on: CBRC016 (line from a melanoma biopsy)
CBRC017 = tested on: CBRC017 (line from a melanoma biopsy)

SMILES | cleaved PARP positive nuclei fraction (501Mel) [%] | cleaved PARP positive nuclei fraction (A101D) [%] | cleaved PARP positive nuclei fraction (A2058) [%] | cleaved PARP positive nuclei fraction (A375) [%] | cleaved PARP positive nuclei fraction (C32) [%] | cleaved PARP positive nuclei fraction (CBRC008) [%] | cleaved PARP positive nuclei fraction (CBRC014) [%] | cleaved PARP positive nuclei fraction (CBRC016) [%] | cleaved PARP positive nuclei fraction (CBRC017) [%]
CCN(CC)CCNC(=O)c1c(C)[nH]c(/C=C2\C(=O)Nc3ccc(F)cc32)c1C [sunitinib] + Cn1c(=O)n(-c2ccc(C(C)(C)C#N)cc2)c2c3cc(-c4cnc5ccccc5c4)ccc3ncc21 [NVP-BEZ235] (first compound 0.4 µM, partner dose 0.004 µM) | 192 | 60.5 | 99.2 | 258 | 80.2 | 306 | 93.4 | 35.3 | 92
C[C@@H](N)c1ccc(C(=O)Nc2ccnc3[nH]ccc23)cc1 + COc1ccc(C2=N[C@@H](c3ccc(Cl)cc3)[C@@H](c3ccc(Cl)cc3)N2C(=O)N2CCNC(=O)C2)c(OC(C)C)c1 [Nutlin-3] (first compound 0.4 µM, partner dose 0.1 µM) | 79.3 | 89 | 173 | 96.2 | 26200 | 83.8 | 99.5 | 133 | 84.3
CC1(C)CCC(c2ccc(Cl)cc2)=C(CN2CCN(c3ccc(C(=O)NS(=O)(=O)c4ccc(N[C@H](CCN5CCOCC5)CSc5ccccc5)c(S(=O)(=O)C(F)(F)F)c4)cc3)CC2)C1 + CNC(=O)c1cc(Oc2ccc(NC(=O)Nc3ccc(Cl)c(C(F)(F)F)c3)cc2)ccn1 [sorafenib] (first compound 0.4 µM, partner dose 0.4 µM) | 72.8 | 93.7 | 151 | 195 | 1830 | 365 | 691 | 336 | 357
CC(=O)O[C@@]12CO[C@@H]1C[C@H](O)[C@@]1(C)C(=O)[C@H](O)C3=C(C)[C@@H](OC(=O)[C@H](O)[C@@H](NC(=O)OC(C)(C)C)c4ccccc4)C[C@@](O)([C@@H](OC(=O)c4ccccc4)[C@H]21)C3(C)C [Docetaxel] + Nc1ccn([C@@H]2O[C@H](CO)[C@@H](O)C2(F)F)c(=O)n1 [gemcitabine] (first compound 0.0001 µM, partner dose 0.0004 µM) | 794 | 115 | 1940 | 2220 | 124 | 477 | 185 | 190 | 206
CN(c1ncccc1CNc1nc(Nc2ccc3c(c2)CC(=O)N3)ncc1C(F)(F)F)S(C)(=O)=O + CCCS(=O)(=O)Nc1ccc(F)c(C(=O)c2c[nH]c3ncc(Cl)cc23)c1F [PLX4720] (first compound 0.08 µM, partner dose 0.08 µM) | 55.9 | 39.9 | 42.1 | 217 | 80 | 82.3 | 129 | 125 | 86.3
CN(c1ncccc1CNc1nc(Nc2ccc3c(c2)CC(=O)N3)ncc1C(F)(F)F)S(C)(=O)=O + COc1ccc(Cl)c(Nc2nc3ccccc3nc2NS(=O)(=O)c2cccc(NC(=O)C(C)(C)N)c2)c1 [XL147] (first compound 0.08 µM, partner dose 0.8 µM) | 105 | 136 | 168 | 84.9 | 94.8 | 96 | 116 | 258 | 258
CCCCCCCCc1ccc(CCC(N)(CO)CO)cc1 [fingolimod] + Nc1ccn([C@@H]2O[C@H](CO)[C@@H](O)C2(F)F)c(=O)n1 [gemcitabine] (first compound 2 µM, partner dose 0.0004 µM) | 104 | 172 | 94.8 | 311 | 77.5 | 82.3 | 119 | 112 | 75.4
CC1(C)CCC(c2ccc(Cl)cc2)=C(CN2CCN(c3ccc(C(=O)NS(=O)(=O)c4ccc(N[C@H](CCN5CCOCC5)CSc5ccccc5)c(S(=O)(=O)C(F)(F)F)c4)cc3)CC2)C1 + CCCCCCCCc1ccc(CCC(N)(CO)CO)cc1 [fingolimod] (first compound 0.4 µM, partner dose 2 µM) | 271 | 665 | 103 | 731 | 564 | 390 | 354 | 228 | 360
CCN(CC)CCNC(=O)c1c(C)[nH]c(/C=C2\C(=O)Nc3ccc(F)cc32)c1C [sunitinib] + Nc1ccn([C@@H]2O[C@H](CO)[C@@H](O)C2(F)F)c(=O)n1 [gemcitabine] (first compound 0.4 µM, partner dose 0.0004 µM) | 86.6 | 199 | 53 | 226 | 85.8 | 93 | 110 | 161 | 126
CC1(C)CCC(c2ccc(Cl)cc2)=C(CN2CCN(c3ccc(C(=O)NS(=O)(=O)c4ccc(N[C@H](CCN5CCOCC5)CSc5ccccc5)c(S(=O)(=O)C(F)(F)F)c4)cc3)CC2)C1 + Cn1sc(=O)n(Cc2ccccc2)c1=O [TDZD-8] (first compound 0.4 µM, partner dose 0.4 µM) | 68.5 | 171 | 127 | 597 | 236 | 371 | 529 | 1040 | 361
Cn1cnc2c(F)c(Nc3ccc(Br)cc3Cl)c(C(=O)NOCCO)cc21 [selumetinib] + CCN(CC)CCNC(=O)c1c(C)[nH]c(/C=C2\C(=O)Nc3ccc(F)cc32)c1C [sunitinib] (first compound 0.015 µM, partner dose 0.4 µM) | 649 | 122 | 51.7 | 134 | 105 | 134 | 94.3 | 231 | 96
C[C@]1(O)C[C@@H](c2nc(-c3ccc4ccc(-c5ccccc5)nc4c3)c3c(N)nccn32)C1 + Cn1c(Nc2ccc(C(F)(F)F)cc2)nc2cc(Oc3ccnc(-c4ncc(C(F)(F)F)[nH]4)c3)ccc21 [CHIR265] (first compound 0.4 µM, partner dose 0.08 µM) | 180 | 153 | 111 | 1730 | 86.1 | 310 | 155 | 159 | 128
NC(=O)c1ccc(N(C(N)=O)c2c(F)cccc2F)nc1-c1ccc(F)cc1F + Cc1cc(Nc2cc(N3CCN(C)CC3)nc(/C=C/c3ccccc3)n2)n[nH]1 [ENMD2076] (first compound 0.4 µM, partner dose 0.04 µM) | 86.3 | 39.5 | 143 | 133 | 71.8 | 19.3 | 81.7 | 170 | 97.7
NC1(c2ccc(-c3nc4ccn5c(=O)[nH]nc5c4cc3-c3ccccc3)cc2)CCC1 + CC(=O)c1c(C)c2cnc(Nc3ccc(N4CCNCC4)cn3)nc2n(C2CCCC2)c1=O [palbociclib] (first compound 0.4 µM, partner dose 0.04 µM) | 159 | 132 | 131 | 282 | 122 | 155 | 123 | 31.9 | 113
Cn1sc(=O)n(Cc2ccccc2)c1=O + Cn1c(=O)n(-c2ccc(C(C)(C)C#N)cc2)c2c3cc(-c4cnc5ccccc5c4)ccc3ncc21 [NVP-BEZ235] (first compound 0.4 µM, partner dose 0.004 µM) | 90.8 | 101 | 89.3 | 164 | 78.9 | 62 | 94.4 | 93.3 | 113
COc1ccc(C2=N[C@@H](c3ccc(Cl)cc3)[C@@H](c3ccc(Cl)cc3)N2C(=O)N2CCNC(=O)C2)c(OC(C)C)c1 [Nutlin-3] + Nc1ccn([C@@H]2O[C@H](CO)[C@@H](O)C2(F)F)c(=O)n1 [gemcitabine] (first compound 0.1 µM, partner dose 0.0004 µM) | 56.9 | 144 | 111 | 156 | 80.1 | 182 | 120 | 110 | 125
NC1(c2ccc(-c3nc4ccn5c(=O)[nH]nc5c4cc3-c3ccccc3)cc2)CCC1 + CC(C)C[C@H](NC(=O)[C@H](Cc1ccccc1)NC(=O)c1cnccn1)B(O)O [Bortezomib] (first compound 0.4 µM, partner dose 0.001 µM) | 71.2 | 557 | 112 | 138 | 176 | 336 | 100 | 124 | 72.8
Cn1sc(=O)n(Cc2ccccc2)c1=O + CC(=O)O[C@@]12CO[C@@H]1C[C@H](O)[C@@]1(C)C(=O)[C@H](O)C3=C(C)[C@@H](OC(=O)[C@H](O)[C@@H](NC(=O)OC(C)(C)C)c4ccccc4)C[C@@](O)([C@@H](OC(=O)c4ccccc4)[C@H]21)C3(C)C [Docetaxel] (first compound 0.4 µM, partner dose 0.0001 µM) | 80.6 | 67.1 | 1780 | 2100 | 133 | 244 | 219 | 268 | 160
CCCCCCCCc1ccc(CCC(N)(CO)CO)cc1 [fingolimod] + Nc1ncn([C@H]2C[C@H](O)[C@@H](CO)O2)c(=O)n1 [decitabine] (first compound 2 µM, partner dose 0.1 µM) | 184 | 183 | 182 | 48.1 | 282 | 78.3 | 101 | 90.7 | 115

A second format for some results above:
SMILES	cleaved PARP positive nuclei fraction (501Mel) [%]	cleaved PARP positive nuclei fraction (A101D) [%]	cleaved PARP positive nuclei fraction (A2058) [%]	cleaved PARP positive nuclei fraction (A375) [%]	cleaved PARP positive nuclei fraction (C32) [%]	cleaved PARP positive nuclei fraction (CBRC008) [%]	cleaved PARP positive nuclei fraction (CBRC014) [%]	cleaved PARP positive nuclei fraction (CBRC016) [%]	cleaved PARP positive nuclei fraction (CBRC017) [%]
CC1(C)CCC(c2ccc(Cl)cc2)=C(CN2CCN(c3ccc(C(=O)NS(=O)(=O)c4ccc(N[C@H](CCN5CCOCC5)CSc5ccccc5)c(S(=O)(=O)C(F)(F)F)c4)cc3)CC2)C1 + Cn1sc(=O)n(Cc2ccccc2)c1=O [TDZD-8] (first compound 0.4 µM, partner dose 0.4 µM)	68.5	171	127	597	236	371	529	1040	361
Cn1cnc2c(F)c(Nc3ccc(Br)cc3Cl)c(C(=O)NOCCO)cc21 [selumetinib] + CCN(CC)CCNC(=O)c1c(C)[nH]c(/C=C2\C(=O)Nc3ccc(F)cc32)c1C [sunitinib] (first compound 0.015 µM, partner dose 0.4 µM)	649	122	51.7	134	105	134	94.3	231	96
